Experimental findings from US7485456 are described below.

Sequences of proteins named here, by UniProt entry; tags and fusion partners are left off. A change or cut given only in a name is not applied to a line headed by its entry. Residues count along the entry.
UniProt P36941, residues 249-435: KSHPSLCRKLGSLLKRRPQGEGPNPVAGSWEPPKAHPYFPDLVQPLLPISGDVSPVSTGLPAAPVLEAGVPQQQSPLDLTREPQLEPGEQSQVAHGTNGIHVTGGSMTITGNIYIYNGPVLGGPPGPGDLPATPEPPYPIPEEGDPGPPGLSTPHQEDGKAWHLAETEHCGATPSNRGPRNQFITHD
UniProt Q99558: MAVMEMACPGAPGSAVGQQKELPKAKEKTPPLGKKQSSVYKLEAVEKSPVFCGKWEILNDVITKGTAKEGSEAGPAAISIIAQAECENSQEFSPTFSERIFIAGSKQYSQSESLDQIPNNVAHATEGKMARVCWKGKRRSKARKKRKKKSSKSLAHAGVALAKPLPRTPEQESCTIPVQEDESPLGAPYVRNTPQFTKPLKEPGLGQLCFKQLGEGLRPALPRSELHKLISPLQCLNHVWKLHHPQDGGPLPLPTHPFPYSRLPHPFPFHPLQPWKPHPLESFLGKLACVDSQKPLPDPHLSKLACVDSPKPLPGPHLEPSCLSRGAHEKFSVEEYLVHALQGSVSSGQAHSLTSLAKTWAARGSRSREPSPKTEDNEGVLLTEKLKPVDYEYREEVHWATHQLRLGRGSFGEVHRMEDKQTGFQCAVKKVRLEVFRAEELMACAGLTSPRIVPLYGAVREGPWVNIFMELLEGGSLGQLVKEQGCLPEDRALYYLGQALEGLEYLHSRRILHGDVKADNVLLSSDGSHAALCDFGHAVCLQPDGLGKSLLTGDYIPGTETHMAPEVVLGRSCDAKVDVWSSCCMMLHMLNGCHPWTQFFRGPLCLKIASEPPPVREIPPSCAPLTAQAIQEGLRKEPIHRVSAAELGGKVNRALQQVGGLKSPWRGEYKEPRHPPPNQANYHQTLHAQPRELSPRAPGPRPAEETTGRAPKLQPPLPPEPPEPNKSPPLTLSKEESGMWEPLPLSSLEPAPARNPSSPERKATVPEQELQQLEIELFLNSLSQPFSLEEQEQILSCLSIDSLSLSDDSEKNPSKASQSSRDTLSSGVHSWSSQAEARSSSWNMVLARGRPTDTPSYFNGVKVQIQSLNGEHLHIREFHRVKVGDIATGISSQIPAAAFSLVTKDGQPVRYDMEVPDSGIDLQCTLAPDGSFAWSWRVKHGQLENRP

Experiment [1] has as its target human TRAF2 in pGBT9 vector in conjunction with GAL4 DNA binding domain (two-hybrid bait) (human). Put plainly: yeast two-hybrid with TRAF2 bait, growth on 50 mM 3AT (HIS3 reporter).
For experiment [2] the target is unchanged. Put plainly: yeast two-hybrid screen with TRAF2 bait, positive clones.
Experiment [3] concerns the target T1, C-terminal region of TRAF2 (C-TRAF domain) (human) (UniProt Q12933).
T1 sequence: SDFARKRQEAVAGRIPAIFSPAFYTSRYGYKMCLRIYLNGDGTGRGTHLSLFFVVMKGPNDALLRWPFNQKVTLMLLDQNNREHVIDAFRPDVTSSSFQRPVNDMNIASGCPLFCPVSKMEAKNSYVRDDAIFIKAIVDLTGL
Briefly: yeast two-hybrid (results not shown).

Experiment [4] deals with T2, region of TRAF2 upstream of the C-TRAF domain (N-TRAF domain) (human) (UniProt Q12933).
T2 sequence: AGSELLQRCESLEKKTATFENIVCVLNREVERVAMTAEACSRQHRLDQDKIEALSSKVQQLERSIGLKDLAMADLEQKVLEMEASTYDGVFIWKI
Briefly: yeast two-hybrid (results not shown).

The target in experiment [5] is human TRAF2 in pGBT9 vector in conjunction with GAL4 DNA binding domain (two-hybrid bait) (human). Put plainly: yeast two-hybrid specificity test, TRAF2 bait.
Experiment [6] has the same target. Put plainly: yeast two-hybrid specificity test.
In experiment [7] the target is T3, FLAG/B6/TRAF2 (TRAF2 tagged with FLAG, expressed in HeLa-Bujard cells) (human) (UniProt Q12933).
T3 sequence: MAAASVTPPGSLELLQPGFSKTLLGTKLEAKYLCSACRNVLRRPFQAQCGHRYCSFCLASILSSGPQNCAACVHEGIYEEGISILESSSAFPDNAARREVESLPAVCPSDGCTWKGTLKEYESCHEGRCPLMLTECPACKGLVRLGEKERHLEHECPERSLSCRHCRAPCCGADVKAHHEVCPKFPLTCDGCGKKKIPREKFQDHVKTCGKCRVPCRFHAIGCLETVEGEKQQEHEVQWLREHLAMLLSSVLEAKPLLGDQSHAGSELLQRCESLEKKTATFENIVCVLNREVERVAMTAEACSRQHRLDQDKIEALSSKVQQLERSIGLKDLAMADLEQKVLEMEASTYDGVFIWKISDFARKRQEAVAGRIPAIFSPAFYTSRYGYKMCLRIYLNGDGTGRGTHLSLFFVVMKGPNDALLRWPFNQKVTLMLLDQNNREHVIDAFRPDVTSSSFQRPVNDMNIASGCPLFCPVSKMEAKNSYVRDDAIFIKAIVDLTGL
Briefly: co-immunoprecipitation from co-transfected HeLa-Bujard cells (anti-FLAG or anti-HA), SDS-PAGE, autoradiography.

Results are given in words; binding and its absence hold for the method and conditions named. For part of these data: Binding seen in cells or lysates may run through a third protein. Some entries that bind do so weakly or less than the wild type. For part of these data: Where a sequence is shown, tags or fusion partners need not be part of it.

In the case of “Lymphotoxin beta receptor cDNA clones picked from the human B-cell library (two-hybrid prey, GAL4 activation domain fusion) (from UniProt P36941 249-435)”, the binding entry in experiment [1] and in experiment [2] was “binds” in each case.
With “full-length NIK (NF-kB inducing kinase) (from UniProt Q99558 1-947) (enzyme)”, the binding result in experiment [3] and in experiment [4] was “binds” each time.
In the case of “protein encoded by new clone number 10, partial NIK (NIK 624-947) (two-hybrid prey, GAL4 activation domain fusion) (from UniProt Q99558 624-947) (enzyme)”, the binding entry in experiment [5], in experiment [6], in experiment [1] and in experiment [3] was “binds” throughout.
Turning to “ORF of clone 10 in fusion with the Hemeaglutinine (HA) epitope, expressed in HeLa-Bujard cells (from UniProt Q99558 624-947) (enzyme)”, the binding entry in experiment [7] is given as “binds”.
